This is an account of results in paper PMC10530652 (BME Frontiers, 2021).

This data set is described as follows: general procedure: Fmoc solid-phase peptide synthesis; Aminomethyl-ChemMatrix resin with Rink amide linker; DIC/Oxyma. To be noted: whole synthesis, analytical RP-HPLC, MALDI-TOF MS.

In the case of (Pro-Phe-Gly-Nle-Lys-βAla)3, the “final HPLC purity” value is recorded as above 95%.
